According to article doi:10.64898/2025.12.13.693833 (bioRxiv, 2025):
Changes are numbered by the printed parent chain. Results are given in words; binding and its absence hold for the method and conditions named. Tags and fused reporters may be left off the sequences shown.

Chains of the proteins cited; added tags and fusions are not shown. Lines headed by an entry give the natural chain unless they say otherwise; changes in a name come on top. Residues count along the entry.
UniProt P67775, residues 2-309: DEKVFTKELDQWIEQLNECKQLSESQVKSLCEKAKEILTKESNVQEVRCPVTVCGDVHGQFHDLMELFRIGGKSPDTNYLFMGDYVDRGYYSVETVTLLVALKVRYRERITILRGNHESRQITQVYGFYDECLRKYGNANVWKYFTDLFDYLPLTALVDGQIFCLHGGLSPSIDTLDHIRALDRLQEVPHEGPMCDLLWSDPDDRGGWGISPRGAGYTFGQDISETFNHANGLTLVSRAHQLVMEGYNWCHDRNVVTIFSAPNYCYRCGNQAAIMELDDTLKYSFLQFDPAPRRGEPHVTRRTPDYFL
UniProt P30153: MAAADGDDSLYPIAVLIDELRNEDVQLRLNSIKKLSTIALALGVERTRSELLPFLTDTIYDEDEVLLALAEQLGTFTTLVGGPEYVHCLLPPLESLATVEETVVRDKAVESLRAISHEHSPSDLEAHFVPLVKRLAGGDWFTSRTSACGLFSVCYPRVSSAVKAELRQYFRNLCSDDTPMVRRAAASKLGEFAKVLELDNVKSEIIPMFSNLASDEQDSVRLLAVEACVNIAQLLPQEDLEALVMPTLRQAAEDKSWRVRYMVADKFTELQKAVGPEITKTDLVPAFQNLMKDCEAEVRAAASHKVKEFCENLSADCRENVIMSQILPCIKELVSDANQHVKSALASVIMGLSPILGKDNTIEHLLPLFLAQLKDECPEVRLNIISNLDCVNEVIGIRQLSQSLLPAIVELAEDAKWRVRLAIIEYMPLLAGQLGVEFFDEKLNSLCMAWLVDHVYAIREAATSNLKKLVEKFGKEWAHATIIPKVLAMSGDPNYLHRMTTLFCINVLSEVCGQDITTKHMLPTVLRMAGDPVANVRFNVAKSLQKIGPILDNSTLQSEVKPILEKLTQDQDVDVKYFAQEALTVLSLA

What was measured:
GST-ENSA^WT-His6 (human) = biological target: T1, GST-ENSA^WT-His6 (human) (UniProt O43768); assay: BLI
T1 sequence: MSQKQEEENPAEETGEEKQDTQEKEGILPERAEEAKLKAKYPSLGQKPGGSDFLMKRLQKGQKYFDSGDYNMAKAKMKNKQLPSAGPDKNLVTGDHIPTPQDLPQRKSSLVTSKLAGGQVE

[1] = biological target: T2, GST-ENSA^S67D-His6 (human) (UniProt O43768); assay: BLI
T2 sequence: T1 sequence with S67D

binding (GST-ENSA^WT-His6 (human))	binding [1]	Substance
no binding	–	PP2A Cα subunit (from UniProt P67775 2-309) (enzyme)
no binding	no binding	PP2A-AC core enzyme (from UniProt P30153 1-589; P67775 2-309) (complex)
